The record followed here is PMC4770246.

Amino acid sequences for entries named in this document (tags omitted).
UniProt Q1LZ83: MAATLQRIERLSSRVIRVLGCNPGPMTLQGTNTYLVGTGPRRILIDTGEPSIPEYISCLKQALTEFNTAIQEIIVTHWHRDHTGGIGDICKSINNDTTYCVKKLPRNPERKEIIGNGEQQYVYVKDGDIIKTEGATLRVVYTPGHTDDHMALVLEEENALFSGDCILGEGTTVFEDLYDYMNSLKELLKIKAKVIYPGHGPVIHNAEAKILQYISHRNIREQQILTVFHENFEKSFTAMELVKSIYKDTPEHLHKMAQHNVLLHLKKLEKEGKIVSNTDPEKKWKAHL

The assay has as its target Endogenous bovine LACTB2 in mitochondrial matrix extract from bovine liver (bovine (endogenous in bovine liver)) (UniProt Q1LZ83). The experiment in a line: SEC; soluble proteins of bovine liver mitochondrial matrix fractionated on Superdex 200; LACTB2 detected in fractions by immunoblot; size markers 669, 232, 67, 35 and 13 kDa.

These are yes or no findings as the source states them, for the method shown.

Take “Endogenous bovine LACTB2 in mitochondrial matrix extract from bovine liver (from UniProt Q1LZ83 1-288) (enzyme)”: the binding entry is “no binding”.
